Laboratory results from patent publication US10526345B2, “Compounds as GPR119 agonists” (Mankind Pharma Ltd., priority 2016, dated 2020).
The match of structure and compound is tentative.

By UniProt entry, the sequences of proteins in these tests, tags left out.
UniProt Q8TDV5, whole entry: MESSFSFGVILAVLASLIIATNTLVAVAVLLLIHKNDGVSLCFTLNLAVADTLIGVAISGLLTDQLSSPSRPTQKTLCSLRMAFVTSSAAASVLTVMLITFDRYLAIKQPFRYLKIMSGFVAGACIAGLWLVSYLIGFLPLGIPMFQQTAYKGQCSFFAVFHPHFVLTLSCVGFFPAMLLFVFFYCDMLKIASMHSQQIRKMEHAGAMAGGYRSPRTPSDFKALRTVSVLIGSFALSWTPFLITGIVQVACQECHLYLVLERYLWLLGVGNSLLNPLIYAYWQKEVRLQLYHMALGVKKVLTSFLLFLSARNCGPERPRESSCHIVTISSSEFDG

Biological target: hGPR119 (Homo sapiens, UniProt Q8TDV5)
Experiment: In vitro cyclic AMP assay (Cisbio dynamic 2 HTRF kit) in CHO-hGPR119 cells
Conditions: cAMP
Procedure: cAMP measurements were done using Cisbio dynamic 2 HTRF kit according to the manufacturer's protocol. Briefly, CHO-hGPR119 cells were plated at a cell density of 5000 cells/well/5 μl into a white small volume 384 well plate. The final concentrations of IBMX and DMSO used were 1 mM and 0.5% respectively. Cells were treated with various concentrations of the test compound for 60 min at room temperature. Cells were lysed by buffer containing Anti-cAMP antibody and d2-cAMP reagents and incubated for 1 hour at room temperature. HTRF was measured at 337 nm excitation and emission wavelengths of 665 nm and 620 nm on a microplate reader (Flurostar, BMG Labtech). Graphpad prism software was utilized for EC50 determinations.

CC(C)c1noc(N2CCC(C(C)Oc3nc4ccc(-c5cccnc5)nc4s3)CC2)n1 (centres unmarked)
EC50: 25 to 50 nM | Induction (% induction at 1 μM) (compound at 1 μM, 60 min): 81%
